Reference: article PMC6872557
These are yes or no findings as the source states them, for the method shown. In cells and extracts the contact can be indirect. Some binding calls cover weakened binding; strength is not graded here.

Legend:
[1] = molecular target: Flag-RUNX1 (Runt-Related Transcription Factor 1) (UniProt Q01196); experiment: co-IP; Fig. 2b-e: U251 cells overexpressing Flag-RUNX1, Flag-SMAD3 or Flag-SUV39H1 with TGFβ protein for 4 h or 8 h; N9 cells overexpressing the same with LY2109761 for 24 h or 48 h; Western and IP lysis buffer, antibody and protein-A/G PLUS agarose at 4 °C overnight, three washes with RIPA, western blot
[2] = molecular target: RUNX1 (Runt-related transcription factor 1) (human (endogenous in U251, N9)) (UniProt Q01196); experiment: co-IP; Fig. S9a: co-IP of RUNX1 with five partners taken from a STRING network, 'in vivo'; cells, bait and antibodies not shown; general method: Western and IP lysis buffer, antibody and protein-A/G PLUS agarose at 4 °C overnight, three washes with RIPA, western blot

binding [1]: binds
binding [2]: binds
B1: SUV39H1 (protein, UniProt O43463 1-412)
chain: MAENLKGCSVCCKSSWNQLQDLCRLAKLSCPALGISKRNLYDFEVEYLCDYKKIREQEYYLVKWRGYPDSESTWEPRQNLKCVRILKQFHKDLERELLRRHHRSKTPRHLDPSLANYLVQKAKQRRALRRWEQELNAKRSHLGRITVENEVDLDGPPRAFVYINEYRVGEGITLNQVAVGCECQDCLWAPTGGCCPGASLHKFAYNDQGQVRLRAGLPIYECNSRCRCGYDCPNRVVQKGIRYDLCIFRTDDGRGWGVRTLEKIRKNSFVMEYVGEIITSEEAERRGQIYDRQGATYLFDLDYVEDVYTVDAAYYGNISHFVNHSCDPNLQVYNVFIDNLDERLPRIAFFATRTIRAGEELTFDYNMQVDPVDMESTRMDSNFGLAGLPGSPKKRVRIECKCGTESCRKYLF
